# No constants are given. Whether binding was seen depends on the method and setting. In cells and extracts the contact can be indirect. Some entries that bind do so weakly or less than the wild type. For part of these data: Tags and fused reporters may be left off the sequences shown.
# Chains of the proteins cited; added tags and fusions are not shown.
# UniProt Q14676: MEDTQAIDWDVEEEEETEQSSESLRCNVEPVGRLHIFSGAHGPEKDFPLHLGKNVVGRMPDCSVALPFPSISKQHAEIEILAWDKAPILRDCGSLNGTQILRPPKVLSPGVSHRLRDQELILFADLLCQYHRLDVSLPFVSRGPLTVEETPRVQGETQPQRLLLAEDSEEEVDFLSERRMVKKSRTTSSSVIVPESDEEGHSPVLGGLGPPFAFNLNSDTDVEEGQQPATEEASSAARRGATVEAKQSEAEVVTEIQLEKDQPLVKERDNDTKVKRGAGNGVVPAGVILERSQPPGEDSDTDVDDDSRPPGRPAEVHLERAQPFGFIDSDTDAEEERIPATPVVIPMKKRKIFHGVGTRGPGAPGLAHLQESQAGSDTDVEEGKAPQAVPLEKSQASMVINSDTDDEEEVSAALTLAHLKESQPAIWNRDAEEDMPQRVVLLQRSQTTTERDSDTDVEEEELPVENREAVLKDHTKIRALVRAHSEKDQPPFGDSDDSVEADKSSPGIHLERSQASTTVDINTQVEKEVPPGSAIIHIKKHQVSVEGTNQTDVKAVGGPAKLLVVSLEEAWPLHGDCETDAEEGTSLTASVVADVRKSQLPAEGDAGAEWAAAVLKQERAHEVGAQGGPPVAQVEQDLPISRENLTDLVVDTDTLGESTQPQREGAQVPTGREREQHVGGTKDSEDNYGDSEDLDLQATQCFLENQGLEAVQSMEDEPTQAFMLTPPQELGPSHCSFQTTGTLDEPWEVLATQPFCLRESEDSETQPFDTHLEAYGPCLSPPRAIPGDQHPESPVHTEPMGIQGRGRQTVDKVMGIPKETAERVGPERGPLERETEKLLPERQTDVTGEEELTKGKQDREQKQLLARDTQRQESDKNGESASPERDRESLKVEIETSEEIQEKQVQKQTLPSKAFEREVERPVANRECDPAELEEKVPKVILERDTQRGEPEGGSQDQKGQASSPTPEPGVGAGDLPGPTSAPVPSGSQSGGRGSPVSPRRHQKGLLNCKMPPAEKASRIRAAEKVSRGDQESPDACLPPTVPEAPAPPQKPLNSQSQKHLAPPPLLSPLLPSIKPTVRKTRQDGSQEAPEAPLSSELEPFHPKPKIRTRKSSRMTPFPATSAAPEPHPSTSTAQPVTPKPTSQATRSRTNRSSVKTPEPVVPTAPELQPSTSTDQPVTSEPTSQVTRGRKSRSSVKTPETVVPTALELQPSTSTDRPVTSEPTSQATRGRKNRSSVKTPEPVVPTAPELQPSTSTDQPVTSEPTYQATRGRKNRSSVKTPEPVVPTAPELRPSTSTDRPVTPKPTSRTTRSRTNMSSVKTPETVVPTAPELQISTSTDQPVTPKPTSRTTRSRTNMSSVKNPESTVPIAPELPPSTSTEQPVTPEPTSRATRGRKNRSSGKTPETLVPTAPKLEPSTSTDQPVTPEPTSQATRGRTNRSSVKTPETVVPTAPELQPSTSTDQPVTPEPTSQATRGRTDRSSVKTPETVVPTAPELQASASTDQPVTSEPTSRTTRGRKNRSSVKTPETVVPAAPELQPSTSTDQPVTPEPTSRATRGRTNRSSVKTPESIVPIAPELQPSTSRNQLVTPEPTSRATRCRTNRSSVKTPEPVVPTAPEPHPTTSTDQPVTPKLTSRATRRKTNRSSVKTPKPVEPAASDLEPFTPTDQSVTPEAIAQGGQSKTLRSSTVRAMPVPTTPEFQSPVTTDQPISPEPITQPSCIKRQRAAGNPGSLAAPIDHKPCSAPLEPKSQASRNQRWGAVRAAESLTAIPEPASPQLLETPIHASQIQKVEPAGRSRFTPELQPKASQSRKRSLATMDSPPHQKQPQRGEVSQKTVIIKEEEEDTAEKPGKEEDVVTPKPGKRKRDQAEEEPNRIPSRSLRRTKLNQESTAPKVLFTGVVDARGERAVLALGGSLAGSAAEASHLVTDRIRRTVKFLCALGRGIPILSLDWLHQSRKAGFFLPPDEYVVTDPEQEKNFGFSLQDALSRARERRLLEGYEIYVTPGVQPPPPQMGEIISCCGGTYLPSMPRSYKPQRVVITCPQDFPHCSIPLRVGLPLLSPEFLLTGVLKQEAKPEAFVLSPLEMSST
# UniProt O60934: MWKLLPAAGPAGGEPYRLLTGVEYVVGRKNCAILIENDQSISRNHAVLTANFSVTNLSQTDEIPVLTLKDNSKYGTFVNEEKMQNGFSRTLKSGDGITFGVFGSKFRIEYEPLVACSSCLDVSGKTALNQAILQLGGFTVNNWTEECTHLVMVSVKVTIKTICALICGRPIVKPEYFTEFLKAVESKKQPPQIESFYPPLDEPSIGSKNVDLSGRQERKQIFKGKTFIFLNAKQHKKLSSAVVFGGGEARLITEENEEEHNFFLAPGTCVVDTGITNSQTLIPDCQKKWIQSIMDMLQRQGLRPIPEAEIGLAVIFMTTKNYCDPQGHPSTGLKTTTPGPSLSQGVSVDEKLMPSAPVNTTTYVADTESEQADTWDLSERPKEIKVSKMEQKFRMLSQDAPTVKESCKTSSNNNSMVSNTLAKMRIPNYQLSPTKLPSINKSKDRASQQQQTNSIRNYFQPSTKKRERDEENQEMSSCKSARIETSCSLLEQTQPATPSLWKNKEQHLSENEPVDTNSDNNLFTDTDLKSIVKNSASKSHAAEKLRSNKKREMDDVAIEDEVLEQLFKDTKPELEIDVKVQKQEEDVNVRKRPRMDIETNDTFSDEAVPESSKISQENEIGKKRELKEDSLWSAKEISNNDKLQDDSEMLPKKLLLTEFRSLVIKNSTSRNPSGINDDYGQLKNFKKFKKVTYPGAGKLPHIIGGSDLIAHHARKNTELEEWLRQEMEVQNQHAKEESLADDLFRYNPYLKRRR
# UniProt Q92878: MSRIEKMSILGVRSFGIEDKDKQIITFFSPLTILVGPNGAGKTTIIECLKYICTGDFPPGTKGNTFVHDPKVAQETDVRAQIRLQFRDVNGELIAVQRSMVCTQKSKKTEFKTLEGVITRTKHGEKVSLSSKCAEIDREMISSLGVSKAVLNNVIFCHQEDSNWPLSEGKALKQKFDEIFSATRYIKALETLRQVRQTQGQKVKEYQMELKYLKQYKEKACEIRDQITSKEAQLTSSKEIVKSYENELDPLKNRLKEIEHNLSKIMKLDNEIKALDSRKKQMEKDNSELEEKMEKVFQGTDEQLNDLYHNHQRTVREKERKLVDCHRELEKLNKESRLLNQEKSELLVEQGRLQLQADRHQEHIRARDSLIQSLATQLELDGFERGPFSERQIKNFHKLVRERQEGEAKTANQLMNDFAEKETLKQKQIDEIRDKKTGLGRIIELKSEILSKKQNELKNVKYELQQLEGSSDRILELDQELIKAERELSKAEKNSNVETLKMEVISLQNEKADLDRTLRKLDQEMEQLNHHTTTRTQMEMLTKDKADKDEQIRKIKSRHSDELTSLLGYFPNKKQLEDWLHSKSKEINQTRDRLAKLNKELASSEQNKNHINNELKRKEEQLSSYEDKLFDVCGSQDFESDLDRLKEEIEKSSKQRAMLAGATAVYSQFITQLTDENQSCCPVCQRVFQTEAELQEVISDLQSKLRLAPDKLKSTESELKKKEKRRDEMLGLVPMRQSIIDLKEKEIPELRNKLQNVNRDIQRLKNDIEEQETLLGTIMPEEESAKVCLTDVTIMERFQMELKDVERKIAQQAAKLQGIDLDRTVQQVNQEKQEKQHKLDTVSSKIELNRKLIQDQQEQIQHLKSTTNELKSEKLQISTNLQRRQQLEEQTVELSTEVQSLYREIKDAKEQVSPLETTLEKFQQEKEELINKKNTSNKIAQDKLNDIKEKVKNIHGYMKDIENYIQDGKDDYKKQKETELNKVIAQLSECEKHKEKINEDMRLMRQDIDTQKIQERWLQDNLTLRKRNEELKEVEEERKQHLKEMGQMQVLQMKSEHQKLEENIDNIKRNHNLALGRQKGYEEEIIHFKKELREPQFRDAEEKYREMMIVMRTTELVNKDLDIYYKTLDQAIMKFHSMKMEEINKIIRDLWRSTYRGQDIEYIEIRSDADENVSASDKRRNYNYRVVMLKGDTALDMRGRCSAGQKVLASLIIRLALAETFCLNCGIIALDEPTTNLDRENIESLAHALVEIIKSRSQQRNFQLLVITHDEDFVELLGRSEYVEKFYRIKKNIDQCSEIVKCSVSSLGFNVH
# Legend:
# [1] = target: T1, FLAG-tagged Treacle (mouse Tcof1, full length) (mouse) (UniProt O08784); test: co-IP; anti-FLAG agarose from lysates of Tcof1/293-FRT and 293-FRT cells (50 mM Tris-HCl pH 7.5, 120 mM NaCl, 0.5% NP-40, 1 mM EDTA; benzonase-treated), 4 °C overnight, western blot
# T1 sequence: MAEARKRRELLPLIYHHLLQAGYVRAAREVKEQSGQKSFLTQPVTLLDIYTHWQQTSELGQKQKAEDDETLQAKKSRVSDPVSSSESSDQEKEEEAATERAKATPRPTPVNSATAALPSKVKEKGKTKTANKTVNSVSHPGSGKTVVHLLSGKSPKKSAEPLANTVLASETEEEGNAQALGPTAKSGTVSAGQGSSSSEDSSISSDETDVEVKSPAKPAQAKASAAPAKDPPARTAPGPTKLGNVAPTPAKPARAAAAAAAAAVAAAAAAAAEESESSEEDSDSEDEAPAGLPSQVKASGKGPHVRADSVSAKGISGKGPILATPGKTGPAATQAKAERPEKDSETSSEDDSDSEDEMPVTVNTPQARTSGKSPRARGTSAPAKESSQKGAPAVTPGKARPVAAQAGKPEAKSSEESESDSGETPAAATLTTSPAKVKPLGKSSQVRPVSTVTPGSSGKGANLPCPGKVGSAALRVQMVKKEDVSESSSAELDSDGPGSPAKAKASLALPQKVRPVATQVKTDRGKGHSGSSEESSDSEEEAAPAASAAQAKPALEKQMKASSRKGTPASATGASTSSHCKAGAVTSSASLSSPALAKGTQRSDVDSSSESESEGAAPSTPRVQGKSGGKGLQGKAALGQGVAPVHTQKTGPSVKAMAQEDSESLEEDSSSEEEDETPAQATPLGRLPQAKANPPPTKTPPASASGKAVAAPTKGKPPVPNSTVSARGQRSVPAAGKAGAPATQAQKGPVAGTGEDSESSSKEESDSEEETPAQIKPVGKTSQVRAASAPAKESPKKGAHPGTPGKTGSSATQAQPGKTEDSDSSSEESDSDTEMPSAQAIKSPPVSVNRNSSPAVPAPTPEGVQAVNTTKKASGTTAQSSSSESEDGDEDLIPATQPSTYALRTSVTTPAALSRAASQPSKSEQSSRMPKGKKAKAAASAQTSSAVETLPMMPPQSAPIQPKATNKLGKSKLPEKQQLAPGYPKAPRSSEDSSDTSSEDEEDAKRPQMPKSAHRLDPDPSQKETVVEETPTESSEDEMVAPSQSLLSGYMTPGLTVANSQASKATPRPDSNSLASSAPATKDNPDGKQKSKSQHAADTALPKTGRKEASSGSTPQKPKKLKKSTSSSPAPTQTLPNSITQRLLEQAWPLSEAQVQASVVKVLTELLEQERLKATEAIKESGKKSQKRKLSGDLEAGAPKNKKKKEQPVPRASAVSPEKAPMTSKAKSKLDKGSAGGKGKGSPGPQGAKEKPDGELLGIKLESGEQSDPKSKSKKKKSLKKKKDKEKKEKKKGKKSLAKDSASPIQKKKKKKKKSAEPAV
# [2] = target: T2, endogenous Treacle (TCOF1) (human (endogenous in HEK293-T)) (UniProt Q13428); test: co-IP; anti-TCOF1 antibody and Protein A-sepharose from lysate of non-irradiated HEK293-T cells (50 mM Tris-HCl pH 7.5, 120 mM NaCl, 0.5% NP-40, 1 mM EDTA; benzonase-treated), 4 °C, western blot; control without antibody
# T2 sequence: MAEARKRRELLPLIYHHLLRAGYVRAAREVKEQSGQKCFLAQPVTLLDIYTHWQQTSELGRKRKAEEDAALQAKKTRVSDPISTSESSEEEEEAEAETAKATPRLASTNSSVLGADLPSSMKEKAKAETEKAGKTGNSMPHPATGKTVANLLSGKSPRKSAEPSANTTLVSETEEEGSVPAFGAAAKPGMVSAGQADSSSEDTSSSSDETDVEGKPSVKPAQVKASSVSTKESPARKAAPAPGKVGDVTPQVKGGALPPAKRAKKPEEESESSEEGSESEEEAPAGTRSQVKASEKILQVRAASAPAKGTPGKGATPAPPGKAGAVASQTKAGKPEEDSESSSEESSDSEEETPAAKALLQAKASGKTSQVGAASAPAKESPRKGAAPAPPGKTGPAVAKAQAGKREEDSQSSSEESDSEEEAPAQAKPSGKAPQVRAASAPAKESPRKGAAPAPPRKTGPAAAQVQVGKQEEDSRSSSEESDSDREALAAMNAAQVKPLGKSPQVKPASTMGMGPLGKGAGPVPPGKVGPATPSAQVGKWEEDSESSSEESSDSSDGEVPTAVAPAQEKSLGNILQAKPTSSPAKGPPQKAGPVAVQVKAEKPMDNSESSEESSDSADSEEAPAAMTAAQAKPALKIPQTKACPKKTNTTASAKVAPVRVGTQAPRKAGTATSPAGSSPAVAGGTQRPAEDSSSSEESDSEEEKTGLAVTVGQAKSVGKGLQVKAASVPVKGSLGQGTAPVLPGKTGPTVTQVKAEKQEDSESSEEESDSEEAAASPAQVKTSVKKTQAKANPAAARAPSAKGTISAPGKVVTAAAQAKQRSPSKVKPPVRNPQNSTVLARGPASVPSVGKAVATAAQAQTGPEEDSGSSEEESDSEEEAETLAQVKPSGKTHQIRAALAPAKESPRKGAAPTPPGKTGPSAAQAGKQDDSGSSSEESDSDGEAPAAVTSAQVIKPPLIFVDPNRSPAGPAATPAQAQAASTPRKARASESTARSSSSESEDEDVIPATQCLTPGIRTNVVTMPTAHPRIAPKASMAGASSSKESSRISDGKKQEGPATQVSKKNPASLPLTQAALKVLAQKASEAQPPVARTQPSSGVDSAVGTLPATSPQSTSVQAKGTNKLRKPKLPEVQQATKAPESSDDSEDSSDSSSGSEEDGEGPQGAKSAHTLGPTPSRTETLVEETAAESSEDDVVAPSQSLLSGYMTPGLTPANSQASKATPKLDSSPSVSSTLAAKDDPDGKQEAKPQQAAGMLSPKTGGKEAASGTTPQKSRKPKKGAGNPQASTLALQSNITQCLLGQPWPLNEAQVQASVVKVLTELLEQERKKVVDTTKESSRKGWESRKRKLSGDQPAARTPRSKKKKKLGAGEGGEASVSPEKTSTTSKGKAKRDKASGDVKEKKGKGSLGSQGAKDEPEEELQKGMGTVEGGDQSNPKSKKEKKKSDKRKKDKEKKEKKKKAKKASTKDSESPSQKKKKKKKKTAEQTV
binding [1],binding [2],Substance
binds,binds,endogenous MDC1 (from UniProt Q14676 1-2089)
binds,binds,endogenous Nbs1 (from UniProt O60934 1-754)
binds,binds,endogenous Rad50 (from UniProt Q92878 1-1312)

# From publication PMC4735750
